In paper PMC3765211:
Results are given in words; binding and its absence hold for the method and conditions named. Binding seen in cells or lysates may run through a third protein. These calls come from enrichment with a bait or labelling near it, and not all partners need be listed. Tags and fused reporters may be left off the sequences shown.

Protein sequences, listed by entry. Tags and fused reporters are not part of them.
UniProt O95782: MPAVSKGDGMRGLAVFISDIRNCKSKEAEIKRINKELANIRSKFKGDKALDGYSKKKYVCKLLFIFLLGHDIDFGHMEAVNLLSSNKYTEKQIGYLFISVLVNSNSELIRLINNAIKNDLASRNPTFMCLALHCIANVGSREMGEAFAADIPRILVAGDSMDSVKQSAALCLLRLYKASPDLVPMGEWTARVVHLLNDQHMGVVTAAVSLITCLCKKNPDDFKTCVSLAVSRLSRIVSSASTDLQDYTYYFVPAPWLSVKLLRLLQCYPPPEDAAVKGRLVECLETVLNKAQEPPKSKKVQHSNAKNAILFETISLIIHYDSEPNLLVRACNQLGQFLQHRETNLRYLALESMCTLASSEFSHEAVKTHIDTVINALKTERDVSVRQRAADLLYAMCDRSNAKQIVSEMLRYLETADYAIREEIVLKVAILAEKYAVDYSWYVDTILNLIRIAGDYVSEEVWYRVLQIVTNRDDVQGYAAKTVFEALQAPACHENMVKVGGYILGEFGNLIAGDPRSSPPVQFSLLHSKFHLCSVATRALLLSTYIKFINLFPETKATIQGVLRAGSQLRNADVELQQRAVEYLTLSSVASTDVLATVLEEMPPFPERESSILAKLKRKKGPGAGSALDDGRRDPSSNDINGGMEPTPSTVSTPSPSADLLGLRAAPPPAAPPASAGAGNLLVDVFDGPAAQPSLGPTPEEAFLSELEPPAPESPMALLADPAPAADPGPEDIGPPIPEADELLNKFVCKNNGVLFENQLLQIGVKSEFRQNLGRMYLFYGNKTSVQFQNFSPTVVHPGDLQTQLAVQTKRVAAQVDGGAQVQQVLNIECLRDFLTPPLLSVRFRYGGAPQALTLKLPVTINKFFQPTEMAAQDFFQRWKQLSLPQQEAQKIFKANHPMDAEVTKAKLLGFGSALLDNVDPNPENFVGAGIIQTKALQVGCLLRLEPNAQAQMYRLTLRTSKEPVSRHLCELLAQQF
UniProt P63010: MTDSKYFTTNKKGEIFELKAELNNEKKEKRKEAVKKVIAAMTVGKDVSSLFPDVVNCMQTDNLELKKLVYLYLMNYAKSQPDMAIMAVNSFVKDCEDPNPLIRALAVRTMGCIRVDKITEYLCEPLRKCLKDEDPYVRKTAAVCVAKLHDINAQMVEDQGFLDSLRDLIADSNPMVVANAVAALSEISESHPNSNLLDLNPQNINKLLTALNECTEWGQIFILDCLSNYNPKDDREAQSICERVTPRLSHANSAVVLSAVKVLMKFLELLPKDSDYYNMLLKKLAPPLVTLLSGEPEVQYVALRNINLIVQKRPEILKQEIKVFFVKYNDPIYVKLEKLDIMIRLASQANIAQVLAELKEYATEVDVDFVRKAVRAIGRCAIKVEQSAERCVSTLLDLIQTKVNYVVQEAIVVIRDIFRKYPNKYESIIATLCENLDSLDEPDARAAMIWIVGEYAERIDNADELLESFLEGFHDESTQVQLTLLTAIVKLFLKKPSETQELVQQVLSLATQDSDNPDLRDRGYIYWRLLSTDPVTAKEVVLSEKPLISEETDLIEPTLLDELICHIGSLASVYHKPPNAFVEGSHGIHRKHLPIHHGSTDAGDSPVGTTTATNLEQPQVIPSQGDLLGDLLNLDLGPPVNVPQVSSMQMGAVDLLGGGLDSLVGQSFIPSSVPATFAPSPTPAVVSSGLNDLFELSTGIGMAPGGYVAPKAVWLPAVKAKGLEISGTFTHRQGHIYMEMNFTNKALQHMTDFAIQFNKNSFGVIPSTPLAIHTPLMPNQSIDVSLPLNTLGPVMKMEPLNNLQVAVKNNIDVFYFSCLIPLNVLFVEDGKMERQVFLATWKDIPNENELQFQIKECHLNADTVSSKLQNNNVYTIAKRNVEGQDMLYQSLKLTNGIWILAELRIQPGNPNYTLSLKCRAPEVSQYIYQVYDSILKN
UniProt Q96CW1: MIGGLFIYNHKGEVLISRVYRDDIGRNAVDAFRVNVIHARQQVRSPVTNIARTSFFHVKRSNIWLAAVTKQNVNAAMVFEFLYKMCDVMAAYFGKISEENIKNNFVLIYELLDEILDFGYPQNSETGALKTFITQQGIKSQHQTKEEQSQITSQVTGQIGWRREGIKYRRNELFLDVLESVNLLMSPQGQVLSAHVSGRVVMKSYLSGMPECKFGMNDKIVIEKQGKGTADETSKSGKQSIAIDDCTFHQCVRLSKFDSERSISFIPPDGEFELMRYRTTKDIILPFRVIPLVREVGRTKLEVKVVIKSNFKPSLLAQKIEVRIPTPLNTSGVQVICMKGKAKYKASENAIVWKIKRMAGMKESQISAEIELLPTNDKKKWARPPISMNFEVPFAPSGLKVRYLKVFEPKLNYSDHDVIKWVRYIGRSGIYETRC
UniProt O94973: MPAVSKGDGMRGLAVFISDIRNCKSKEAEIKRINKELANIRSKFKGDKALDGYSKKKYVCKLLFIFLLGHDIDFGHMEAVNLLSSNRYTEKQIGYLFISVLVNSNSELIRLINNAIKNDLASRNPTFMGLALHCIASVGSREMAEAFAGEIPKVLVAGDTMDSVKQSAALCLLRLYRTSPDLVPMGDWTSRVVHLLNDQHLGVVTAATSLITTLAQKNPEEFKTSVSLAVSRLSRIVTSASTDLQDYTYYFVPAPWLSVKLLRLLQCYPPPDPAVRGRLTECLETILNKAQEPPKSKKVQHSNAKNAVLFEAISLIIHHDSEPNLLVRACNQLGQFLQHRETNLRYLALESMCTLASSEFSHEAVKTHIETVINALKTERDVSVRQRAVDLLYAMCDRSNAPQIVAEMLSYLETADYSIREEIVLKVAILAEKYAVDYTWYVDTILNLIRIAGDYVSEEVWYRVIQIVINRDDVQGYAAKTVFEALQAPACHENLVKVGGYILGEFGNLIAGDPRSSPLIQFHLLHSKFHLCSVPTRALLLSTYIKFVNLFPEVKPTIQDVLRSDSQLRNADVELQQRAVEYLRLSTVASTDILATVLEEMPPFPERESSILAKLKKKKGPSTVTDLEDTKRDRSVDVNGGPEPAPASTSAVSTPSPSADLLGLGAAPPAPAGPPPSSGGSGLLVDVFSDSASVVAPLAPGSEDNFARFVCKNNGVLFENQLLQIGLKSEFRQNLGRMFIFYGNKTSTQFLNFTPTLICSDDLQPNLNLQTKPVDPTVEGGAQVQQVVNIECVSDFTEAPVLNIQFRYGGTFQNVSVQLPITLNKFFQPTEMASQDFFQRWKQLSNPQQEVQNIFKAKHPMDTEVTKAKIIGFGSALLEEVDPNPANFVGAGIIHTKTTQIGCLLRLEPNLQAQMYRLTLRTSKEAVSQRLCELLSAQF

Biological target: T1, BMCC1 GST F3 (amino acids 575-904) (human) (UniProt Q8WUY3)
T1 sequence: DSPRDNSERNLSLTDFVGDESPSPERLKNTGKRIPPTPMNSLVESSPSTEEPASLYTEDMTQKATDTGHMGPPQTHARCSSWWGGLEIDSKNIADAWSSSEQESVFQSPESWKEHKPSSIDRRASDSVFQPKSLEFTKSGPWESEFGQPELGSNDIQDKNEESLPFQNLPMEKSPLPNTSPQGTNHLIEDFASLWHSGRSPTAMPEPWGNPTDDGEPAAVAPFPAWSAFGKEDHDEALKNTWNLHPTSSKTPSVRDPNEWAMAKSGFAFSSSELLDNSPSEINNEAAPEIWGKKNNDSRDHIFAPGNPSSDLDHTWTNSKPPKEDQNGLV
Assay: affinity purification with mass spectrometry; BMCC1 GST fragment 3 crosslinked to glutathione agarose, incubated with total LNCaP lysate at 4°C overnight (MCLB: 50 mM Tris pH 7.4, 150 mM NaCl, 1 mM EDTA, 1% NP-40); eluted proteins on silver-stained SDS-PAGE, 50 kDa and 110 kDa bands identified by MALDI MS/MS; only the target purified

binding, binds:
AP-2A1 (from UniProt O95782 1-977)
AP-2B1/β-adaptin (from UniProt P63010 1-937)
AP-2M1 (from UniProt Q96CW1 1-435)
AP-2A2 (from UniProt O94973 1-939)
